According to PubChem BioAssay AID2551 (National Center for Advancing Translational Sciences (NCATS), 2010):
About 17,000 (5.5%) of roughly 310,000 compounds were called active. The shares of active, inactive and inconclusive entries below differ from those in the screen. The call rests on the fitted dose curve; in most records, active means well fitted inhibition curve with a large enough effect; inconclusive means small, poorly fitted or top-dose-only effect, or effect the other way; inactive means no such curve, though single readings can be large or run the other way. Potencies beside an inconclusive call are fits to weak or partial responses and may not hold up.
Further: nearly all actives have a fitted effect of over 60% in size.
Potency means the concentration at half of the fitted maximal effect.

The chains behind the UniProt entries cited, without tags or fusion partners. Where a name states a change or a piece, a line headed by the entry shows the natural chain unless it says otherwise.
UniProt P51450: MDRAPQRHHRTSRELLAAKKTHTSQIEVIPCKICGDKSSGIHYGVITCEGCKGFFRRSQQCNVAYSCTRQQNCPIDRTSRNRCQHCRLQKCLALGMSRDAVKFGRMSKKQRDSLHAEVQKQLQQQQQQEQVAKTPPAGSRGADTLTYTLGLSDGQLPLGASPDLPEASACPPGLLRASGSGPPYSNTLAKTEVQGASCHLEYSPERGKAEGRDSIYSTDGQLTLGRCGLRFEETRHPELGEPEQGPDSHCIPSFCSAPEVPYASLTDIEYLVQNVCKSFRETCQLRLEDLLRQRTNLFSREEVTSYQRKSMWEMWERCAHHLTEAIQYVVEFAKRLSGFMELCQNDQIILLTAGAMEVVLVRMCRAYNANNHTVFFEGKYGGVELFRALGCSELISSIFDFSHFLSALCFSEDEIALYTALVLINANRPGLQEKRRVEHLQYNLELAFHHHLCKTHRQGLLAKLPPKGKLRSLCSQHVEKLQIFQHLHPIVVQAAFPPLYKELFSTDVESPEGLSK

What follows are compounds tested against Nuclear receptor ROR-gamma (Mus musculus) (UniProt P51450) (assay: qHTS for inhibitors of ROR gamma transcriptional activity). Conditions: Drosophila S2 Gal4-RORgamma UAS-luciferase reporter, 20 h; series mostly up to 53.6 µM.
How it was run: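 Read-out: Photinus luciferase luminescence; inhibitors lower reporter signal. Insect Schneider cells with Gal4-ROR gamma fusion under metallothionein promoter, UAS reporter; 700 uM final copper sulfate induction, 20 hr, ambient temperature.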
For `CSc1nsc(/C=C/Nc2ccc(C)cc2)c1C#N`, the Potency was inconclusive: 11.2 µM [inhibitor, single point]. For `COc1ccc(CCNC(=O)CN(c2ccc(C)cc2)S(=O)(=O)c2c(C)noc2C)cc1OC`, the Potency was “inactive”. `O=C1C=CC(=O)N1CCNc1ncc(C(F)(F)F)cc1Cl` was tested, and the Potency was active: 5.01 µM. With `COc1ccc(OCc2cc(C(=O)NC(C)Cc3cccnc3)no2)c(Cl)c1` (centres undefined) the Potency was inconclusive: 7.08 µM [activator, partial curve]. For `COc1ccc(Cl)cc1C(=O)NNC(=S)NC1CCCCC1`, the Potency was active: 0.251 µM. With `COc1ccc(S(=O)(=O)N2CCCC(C(=O)Nc3ccc4c(c3)OCCO4)C2)cc1` (centres undefined) the Potency was inconclusive: 35.5 µM [activator, single point]. `Cc1ccc(C(=O)Nc2ccc(Cl)cn2)cc1` was tested, and the Potency was “inactive”. In the case of `CN1CCN(C(=S)c2ccc(OCC(=O)Nc3cccc(C(F)(F)F)c3)cc2)CC1`, the Potency is reported as inconclusive: 7.94 µM [activator, partial curve]. `c1ccc(-n2nnnc2Sc2ncnc3sc4c(c23)CCCC4)cc1` was tested, and the Potency was inconclusive: 8.91 µM [inhibitor, single point]. For `Cc1ccc(NC(=S)N2CCc3[nH]c4ccccc4c3C2)cc1`, the Potency was active: 6.31 µM. With `COc1cccc([C@@H]2Oc3ccc(OC)cc3C(=O)[C@H]2OC(=O)NCCOc2ccccc2)c1` the Potency was “inactive”. For `O=C(NC1CCCc2ccccc21)C(Cc1ccccc1)NS(=O)(=O)c1cccs1` (centres undefined), the Potency was inconclusive: 35.5 µM [activator, single point]. For `CN(CCCNC(=O)c1ccc(N2CCCC2=O)cc1)c1ccccc1`, the Potency was inconclusive: 6.31 µM [activator, single point]. In the case of `S=C1NCN(Cc2ccco2)CN1c1ccccc1`, the Potency is reported as inconclusive: 35.5 µM [inhibitor, single point]. In the case of `COc1cccc(NC(=O)Nc2ccc3c(c2)OCO3)c1`, the Potency is reported as “inactive”. `C/C(CC(=O)Nc1ccc(Cl)c(Cl)c1)=N\NC(N)=S` was tested, and the Potency was active: 5.62 µM. With `Cc1cccc(C(=O)c2c(N)sc3c2CCC(C)C3)c1` (centres undefined) the Potency was inconclusive: 5.01 µM [inhibitor, single point]. For `NC(=O)Cn1cc(/C=N\NS(=O)(=O)c2ccc(F)cc2)c2ccccc21`, the Potency was “inactive”. For `N/C(=N\c1nc2ccccc2o1)NC(=O)c1ccccc1F`, the Potency was active: 2.51 µM. With `CC(=O)N1CCC2(CC1)CC(=O)c1cc(OCC(=O)NCc3ccc(C)cc3)ccc1O2` the Potency was inconclusive: 14.1 µM [activator, single point]. For `CCC(C)c1ccc(OCc2ccc(C(=O)O)o2)cc1` (centres undefined), the Potency was active: 14.1 µM. For `Cc1cccc(C(=O)OCC(=O)N(C)c2ccccc2)c1C`, the Potency was “inactive”. In the case of `N#CCc1c(C#N)c(N)nc(N2CCN(Cc3ccc4c(c3)OCO4)CC2)c1C#N`, the Potency is reported as “inactive”. `COc1ccc(-c2cc(-c3c(O)c(OC)c4occc4c3OC)[nH]n2)cc1` was tested, and the Potency was inconclusive: 15.8 µM [inhibitor, single point]. For `Cn1c(SCC(=O)NCc2ccco2)nc2ccccc2c1=O`, the Potency was “inactive”. With `S=c1[nH]ncn1-c1ccccn1` the Potency was inconclusive: 25.1 µM [inhibitor, single point]. `CCCOc1cccc(NC(=O)c2c(-c3ccccc3)noc2C)c1` was tested, and the Potency was “inactive”. `CC(C)(C)c1ccc(C(=O)Nc2ccccc2NC(=O)c2ccco2)cc1` was tested, and the Potency was “inactive”. In the case of `Cc1cccc(C)c1OCc1cc(C(=O)N2CCCCCCC2)no1`, the Potency is reported as inconclusive: 31.6 µM [activator, single point]. With `CCN(CC)S(=O)(=O)c1ccc(NC(=O)c2ccc(N(C)S(C)(=O)=O)cc2)cc1` the Potency was inconclusive: 35.5 µM [activator, partial curve, poor fit]. In the case of `C=CCCCCCCCCC(=O)O`, the Potency is reported as “inactive”. In the case of `CC(=O)Nc1ccc(Nc2nc(C)c([N+](=O)[O-])c(Nc3ccc(NC(C)=O)cc3)n2)cc1`, the Potency is reported as inconclusive: 0.794 µM [activator, partial curve]. In the case of `O=C(CSc1nnc2ccccn12)N1CCc2ccccc2C1`, the Potency is reported as inconclusive: 1.58 µM [activator, partial curve, poor fit]. In the case of `CCN(CC)c1ncnc2c1ncn2Cc1c(Cl)cccc1Cl`, the Potency is reported as inconclusive: 4.47 µM [activator, single point]. With `C=CCn1c(C)cc(C2=NNC(=NCC)SC2)c1C` the Potency was active: 0.562 µM. For `CCC(=O)Nc1ccc(-c2ccc(N3CCN(C)CC3)nn2)cc1`, the Potency was “inactive”. In the case of `FC(F)(F)c1ccc(CSc2nccn2-c2ccccc2)cc1`, the Potency is reported as inconclusive: 14.1 µM [inhibitor, single point]. `O=C(Nc1ccc2c(c1)OCCO2)c1ccc(Br)c(S(=O)(=O)N2CCOCC2)c1` was tested, and the Potency was “inactive”. `CCOC(=O)c1c(NC(=O)C2=C(C)NC(=S)NC2c2ccccc2C(F)(F)F)sc(C)c1C` (centres undefined) was tested, and the Potency was inconclusive: 17.8 µM [inhibitor, single point]. For `Cc1nc2ccc(Br)cn2c1C(=O)N/N=C\c1ccccc1Cl`, the Potency was active: 7.08 µM. With `Cc1ccc(C(=O)Oc2ccc(Cl)c3cccnc23)cc1[N+](=O)[O-]` the Potency was active: 1.58 µM. For `CN1CCN(C(=O)C2=C[C@@H](c3ccc(C(F)(F)F)cc3)C[C@@H](OCc3ccc(CO)cc3)O2)CC1`, the Potency was “inactive”. In the case of `O=c1c(-c2ccnn2-c2cccc(Cl)c2)cnc2n1CCS2`, the Potency is reported as inconclusive: 1.41 µM [activator, full curve, poor fit]. For `CCS(=O)(=O)Nc1ccc(C2=NN(C(=O)c3ccco3)C(c3cccs3)C2)cc1` (centres undefined), the Potency was inconclusive: 10 µM [activator, single point]. With `CCOc1ccc(-n2cnnn2)cc1S(=O)(=O)NCCc1ccc(OC)c(OC)c1` the Potency was inconclusive: 0.447 µM [inhibitor, single point]. With `O=C(CSc1ccccc1)Nc1nc2ccccc2[nH]1` the Potency was active: 12.6 µM. For `CCCn1c(=S)[nH]c2cc(C(=O)N3CCCC(C(=O)OCC)C3)ccc2c1=O` (centres undefined), the Potency was active: 11.2 µM. For `O=C(NNC(=O)c1cc(OCC(F)(F)F)ccc1OCC(F)(F)F)c1cccc(C(F)(F)F)c1`, the Potency was inconclusive: 28.2 µM [inhibitor, single point]. With `CCc1c(C)c(C#N)c2nc3ccccc3n2c1-n1nc(C)cc1C` the Potency was “inactive”.
